# PubChem BioAssay AID540276 (National Center for Advancing Translational Sciences (NCATS), 2011)
# Among all 300,000 compounds or so, about 5,400 (1.8%) were called active. The inconclusive results got no clear call from the source; some entries with a clear call stand among them for comparison. Calls follow the shape of the full dose curve; tested in HEK293 cells. Potencies beside an inconclusive call are fits to weak or partial responses and may not hold up.
# Assay: qHTS for inhibitors of binding or entry into cells for Marburg Virus
# Details: Marburg virus pseudotyped entry inhibition, cell reporter; series mostly up to 37.8 µM
# Potency is read from the fitted curve at half-maximal effect.
row,Structure (SMILES),Potency
1,CC1(C(=O)Nc2cccc(-n3cnnn3)c2)Cc2ccccc2C(=O)O1 (stereo not drawn),inactive
2,CCNc1nc(=S)nc(NC(C)C)[nH]1,"inconclusive: 5.01 µM [activator, partial curve]"
3,CCOC(=O)Cc1csc(NC(=O)/C=C/c2cccc(Br)c2)n1,"inconclusive: 2.51 µM [inhibitor, full curve]"
4,N#Cc1cccc(C#N)c1Oc1ccc(S(=O)(=O)Nc2ccccc2)cc1,"inconclusive: 7.08 µM [inhibitor, full curve]"
5,O=[N+]([O-])c1ccc2[nH]c3c(c2c1)CCCC3O (stereo not drawn),"inconclusive: 35.5 µM [inhibitor, single point]"
6,Cc1cnc(NC(=O)c2cncc(Br)c2)s1,"inconclusive: 5.8 µM [inhibitor, partial curve, poor fit]"
7,CN(C)c1oc(-c2ccc(OCc3ccccc3)cc2)nc1C#N,"inconclusive: 6.31 µM [activator, single point]"
8,CN(C)Cc1c(C(=O)N/N=C/c2ccco2)nnn1-c1nonc1N,inactive
9,COc1cc(-c2cc(C(=O)N3CCN(c4ccccn4)CC3)c3ccccc3n2)cc(OC)c1OC,"inconclusive: 6.51 µM [inhibitor, single point]"
10,O=[N+]([O-])c1ccc(Nc2nc(NC3CCCCC3)nc(N3CCCC3)n2)cc1,"inconclusive: 10 µM [inhibitor, partial curve]"
11,COCCNS(=O)(=O)c1ccc(C2CNC(=O)C2)cc1 (stereo not drawn),inactive
12,Cc1nn(Cc2cccc(C(=O)NC34CC5CC(CC(C5)C3)C4)c2)c(C)c1Br,"inconclusive: 12.6 µM [inhibitor, partial curve, poor fit]"
13,Cc1ccc(-c2cn3c(n2)CCCC3)cc1,"inconclusive: 0.58 µM [inhibitor, full curve, poor fit]"
14,O=C(Oc1ccccc1)n1c(=S)oc2ccccc21,"inconclusive: 4.11 µM [inhibitor, partial curve, poor fit]"
15,NC1=Nc2cccc3cccc1c23,"inconclusive: 35.5 µM [inhibitor, single point]"
16,OC(CN1CCCCC1)CN(c1ccccc1)c1ccccc1 (stereo not drawn),"inconclusive: 28.2 µM [inhibitor, single point]"
17,C=CCOC(=O)N[C@H](C[N+](=O)[O-])c1ccccc1,"inconclusive: 1.06 µM [inhibitor, single point]"
18,COc1ccc(C(=O)NCCCc2nc3ccccc3n2Cc2cc(C)ccc2C)cc1OC,"inconclusive: 1.64 µM [inhibitor, partial curve, poor fit]"
19,COc1ccccc1-n1c([S-])c(C(=O)Nc2ccccc2C(F)(F)F)[n+]2ccc(C(=O)NCCO)cc12,"inconclusive: 6.31 µM [inhibitor, partial curve, poor fit]"
20,CCOc1ccccc1NC(=O)COC(=O)/C=C/c1ccc(OC)c(OC)c1,"inconclusive: 12.6 µM [inhibitor, partial curve, poor fit]"
21,CCC(=O)N1CCc2cc(S(=O)(=O)CCC(=O)Nc3ccc(Cl)c(C(F)(F)F)c3)ccc21,inactive
22,Cc1ccc(C)c(OCC(=O)NNC(=O)C2CC2)c1,"inconclusive: 0.891 µM [inhibitor, partial curve, poor fit]"

# Part of the list above, reformatted.
row | Structure (SMILES) | Potency
20 | CCOc1ccccc1NC(=O)COC(=O)/C=C/c1ccc(OC)c(OC)c1 | inconclusive: 12.6 µM [inhibitor, partial curve, poor fit]
21 | CCC(=O)N1CCc2cc(S(=O)(=O)CCC(=O)Nc3ccc(Cl)c(C(F)(F)F)c3)ccc21 | inactive

# The list continues:

row,Structure (SMILES),Potency
1,Cc1ccc(S(=O)(=O)N(C)Cc2ccc(C(=O)NN=C(CC(C)C)CC(C)C)cc2)cc1,"inconclusive: 12.6 µM [inhibitor, single point]"
2,Cc1ccc(-c2nn(CCC(=O)NCC3CCCO3)c(=O)c3ccccc23)cc1 (stereo not drawn),"inconclusive: 20 µM [inhibitor, single point]"
3,CCN(N=Nc1cccc([N+](=O)[O-])c1)c1cccc([N+](=O)[O-])c1,"inconclusive: 29.1 µM [inhibitor, single point]"
4,CCOC(=O)c1c(C)[nH]c(C)c1C(=O)CSc1nc2ccccc2c(=O)n1-c1ccccc1C,"inconclusive: 29.1 µM [inhibitor, single point]"
5,O=C(NCC1CCCO1)c1cnc(Cl)c(Cl)c1 (stereo not drawn),"inconclusive: 0.562 µM [activator, partial curve, poor fit]"
6,FC(F)(F)c1ccccc1N/N=C/c1cccnc1,inactive
7,O=C(NCCSc1ccccn1)c1ccc(Cl)cc1Cl,"inconclusive: 35.5 µM [inhibitor, single point]"
8,O=C(COC(=O)COc1ccccc1)Nc1cccc([N+](=O)[O-])c1,inactive
9,N#C/C(=C\c1c(Cl)cccc1Cl)c1nn(-c2ccccc2)c(-n2cccc2)c1C#N,"inconclusive: 0.794 µM [inhibitor, full curve, poor fit]"
10,COc1cc(S(=O)(=O)NC2CCSc3ccccc32)ccc1NC(C)=O (stereo not drawn),inactive
11,COc1cccc(NC(=O)c2ccncc2)c1,inactive
12,Cc1ccc(S(=O)(=O)NCCC(=O)N2CCN(S(=O)(=O)c3cccc(F)c3)CC2)cc1C,"inconclusive: 35.5 µM [inhibitor, single point]"
13,Cn1c(SCC(=O)Nc2sccc2C#N)nnc1-c1ccccc1,inactive
14,CCn1ncc(C2=NOC(C(=O)NCc3ccccc3)C2)c1C (stereo not drawn),"inconclusive: 0.291 µM [inhibitor, full curve]"
15,N#Cc1c(-c2ccc(F)cc2)cc(-c2cccnc2)nc1N,"inconclusive: 2 µM [inhibitor, partial curve, poor fit]"
16,O=C(Oc1c(CN2CCOCC2)cc(Cl)c2cccnc12)c1ccccc1,"inconclusive: 3.55 µM [inhibitor, partial curve, poor fit]"
17,O=C(N/N=C/c1c(O)ccc2ccccc12)c1ccc(CO)nc1,active: 11.2 µM
18,COc1ccccc1OCCNS(=O)(=O)c1ccc2oc3ccccc3c2c1,inactive
19,CCCc1nc2sc3c(SCC(=O)NCc4ccco4)ncnc3c2c2c1CCC2,"inconclusive: 7.3 µM [inhibitor, partial curve]"
20,CC(=O)Nc1c(Cl)cc2c(c1Cl)Cc1ccccc1-2,"inconclusive: 1.26 µM [activator, single point]"
21,CC(C)OP(=O)(OC(C)C)C(Nc1cccc(C(=O)O)c1)c1ccccc1 (stereo not drawn),inactive
